The test system of this experiment is BDF1 mice, P388 leukemia ip, median survival T/C. The experiment can be described thus: NCI In Vivo Anticancer Drug Screen. Data for tumor model P388 Leukemia (intraperitoneal) in B6D2F1 (BDF1) mice. As to conditions: T/C endpoint: median survival time, higher T/C = longer survival. The gist of the method: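 Survival ratio, drug arm over vehicle arm, in mice with a transplanted tumour.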

Setting [1] is: dose: 50.0 mg/kg/injection, schedule: Q04DX003 (ip), vehicle: saline with Tween-80.
Where [2] appears, read: dose: 100.0 mg/kg/injection, schedule: Q04DX003 (ip), vehicle: saline with Tween-80.
[3] abbreviates: dose: 200.0 mg/kg/injection, schedule: Q04DX003 (ip), vehicle: saline with Tween-80.
Where [4] appears, read: dose: 400.0 mg/kg/injection, schedule: Q04DX003 (ip), vehicle: saline.
[5] abbreviates: dose: 12.5 mg/kg/injection, schedule: Q01DX009 (ip), vehicle: Klucel (hydroxypropylcellulose) (HPC).
Where [6] appears, read: dose: 400.0 mg/kg/injection, schedule: Q04DX003 (ip), vehicle: saline with Tween-80.

Structures are written as SMILES. The list is a part of this screen's results and no random one: it is rich in T/C values a quarter to a half above the control, in often repeated tests (any T/C) and in doses without a T/C. Other doses and runs of a compound stand elsewhere. T/C is the treated group as % of the vehicle group. Some entries give survivors of the animals treated and no T/C: the source files T/C as zero there, which appears to mark a toxic dose or a test without result, not a measured value. Some doses without a T/C left all or most animals alive at the check, yet need not have been tolerated: survival well below the control is almost never listed, so the zero probably covers shortened survival too. Counts of survivors are from the toxicity check (mostly the fifth day) where no day follows; animals may have died later. Schedules are NCI's codes, read here as Q, the interval in days (D) or hours (H), X, the number of doses. Some entries were tested several times; their values stand side by side, smallest first. For survival time, the PubChem record calls one and a half times the control and up active, and a quarter to a half above the control has no call in these data; cut-offs in other NCI protocols can differ. Some T/C values are followed by the survivors on the day toxicity was checked, most often the fifth; where none is given, no animal had died by that day.

For 27 compounds, survivor count and T/C results are on record in PubChem BioAssay AID328 (DTP/NCI, 2004).

For the compound `C=CCN(C#N)CC=C`, the survivor count is given as 6 of 6 (dose: 18.75 mg/kg/injection, schedule: Q04DX003 (ip), vehicle: saline); 4 of 6 (dose: 37.5 mg/kg/injection, schedule: Q04DX003 (ip), vehicle: saline); 3 of 6 under setting [1]; 1 of 6 (dose: 75.0 mg/kg/injection, schedule: Q04DX003 (ip), vehicle: saline); 3 of 6 under setting [2]; 3 of 6 under setting [3].
Turning to `CC(C)(C)c1ccc(/C(N)=N/O)cc1`, under “dose: 200.0 mg/kg/injection, schedule: Q01DX005 (ip), vehicle: saline with Tween-80”, the survivor count was 0 of 5.
As for `O=C(O)c1c(I)c(I)c(I)c(I)c1C(=O)c1ccccc1`, the T/C under setting [2] is 135 % of control. Besides, the survivor count (dose: 400.0 mg/kg/injection, schedule: Q01DX009 (ip), vehicle: saline with Tween-80) is on record as 2 of 6.
For `O=C1OCC2CC3c4ccccc4C12c1ccccc13` (stereo not drawn), the T/C (dose: 100.0 mg/kg/injection, schedule: Q01DX001 (ip), vehicle: Klucel (hydroxypropylcellulose) (HPC)) was 135 % of control.
Regarding `CCN(CC)CCOC(=O)c1ccccc1N(c1ccccc1)c1ccccc1`, the survivor count (dose: 250.0 mg/kg/injection, schedule: Q01DX009 (ip), vehicle: Klucel (hydroxypropylcellulose) (HPC)) is given as 3 of 6.
Turning to `Nc1ccc(N=Nc2ccccc2)c(N)c1`, the T/C runs as follows: (dose: 130.0 mg/kg/injection, schedule: Q01DX009 (ip), vehicle: saline) 144 % of control; (dose: 200.0 mg/kg/injection, schedule: Q01DX009 (ip), vehicle: saline) 135 and 138 % of control; (dose: 300.0 mg/kg/injection, schedule: Q01DX009 (ip), vehicle: saline) 144 % of control [5 of 6 alive]. Besides, the survivor count is, setting by setting: (dose: 300.0 mg/kg/injection, schedule: Q01DX009 (ip), vehicle: saline with Tween-80) 1 of 6; (dose: 400.0 mg/kg/injection, schedule: Q01DX009 (ip), vehicle: Klucel (hydroxypropylcellulose) (HPC)) 3 of 6.
On to `CSc1cccc(NC(=O)Oc2ccc([N+](=O)[O-])cc2Cl)c1`, for which, under “dose: 25.0 mg/kg/injection, schedule: Q01DX009 (ip), vehicle: DMSO”, the survivor count is given as 6 of 6.
As for `C/C(=N\[N+](C)(C)C)c1ccccc1`, the T/C (dose: 25.0 mg/kg/injection, schedule: Q04DX003 (ip), vehicle: saline) was 132 % of control.
For `OC(c1cc(C23CC4CC(CC(C4)C2)C3)nc2c(Cl)cc(Cl)cc12)C1CCCCN1` (stereo not drawn), the survivor count is recorded as 6 of 6 (dose: 100.0 mg/kg/injection, schedule: Q01DX009 (ip), vehicle: saline with Tween-80) and 2 of 6 (dose: 200.0 mg/kg/injection, schedule: Q01DX009 (ip), vehicle: saline with Tween-80).
With `CC(=O)NC(CCC(=O)C=[N+]=N)C(=O)O` (stereo not drawn), under “dose: 0.4 mg/kg/injection, schedule: Q01DX010 (ip), vehicle: other”, the T/C is 136 % of control [5 of 6 alive].
On to `CS(=O)(=O)OCCCOS(C)(=O)=O`, for which the survivor count is, setting by setting: (dose: 200.0 mg/kg/injection, schedule: Q01DX009 (ip), vehicle: Klucel (hydroxypropylcellulose) (HPC)) 6 of 6; under setting [4], 4 of 6.
With `CC(c1ccccc1)c1ccc(O)cc1` (stereo not drawn), the survivor count under setting [4] is 6 of 6.
Take `c1ccc(C[P+](c2ccccc2)(c2ccccc2)c2ccccc2)cc1`: under setting [5], the survivor count is recorded as 3 of 6.
In the case of `NC(=S)N/N=C\c1ncccc1OCc1cccc(N)c1`, where the note is “dose: 12.5 mg/kg/injection, schedule: Q01DX009 (ip), vehicle: other”, the T/C was 145 % of control.
`COc1cccc2c1cc([N+](=O)[O-])c1c(C(=O)O)cc3c(c12)OCO3`: the survivor count (dose: 10.0 mg/kg/injection, schedule: Q01DX010 (ip), vehicle: other) is 6 of 6.
Consider `C=CC(OC(C)=O)OC(C)=O`, for which, under “dose: 12.0 mg/kg/injection, schedule: Q01DX009 (ip), vehicle: saline with Tween-80”, the T/C was 125 % of control. Further, the survivor count reads like this: (dose: 25.0 mg/kg/injection, schedule: Q01DX009 (ip), vehicle: saline with Tween-80) 6 of 6; under setting [1], 0 of 6.
Take `NCCCC(NC(=O)CCCCCCCCN=C(N)N)C(O)CCCCCCCCN=C(N)N` (stereo not drawn): the survivor count is given as 6 of 6 (dose: 1.88 mg/kg/injection, schedule: Q01DX010 (ip), vehicle: saline); 6 of 6 (dose: 7.5 mg/kg/injection, schedule: Q01DX010 (ip), vehicle: saline); 0 of 6 (dose: 15.0 mg/kg/injection, schedule: Q01DX010 (ip), vehicle: saline).
Turning to `COc1cc2cc(c1Cl)N(C)C(=O)C[C@H](OC(=O)[C@H](C)N(C)C(=O)CC(C)C)[C@]1(C)O[C@H]1[C@H](C)[C@@H]1C[C@@](O)(NC(=O)O1)[C@H](OC)C=C/C=C(\C)C2`, the T/C reads like this: (dose: 0.1 micrograms/kg/injection, schedule: Q01DX009 (ip), vehicle: saline + alcohol) 128 % of control; (dose: 0.2 micrograms/kg/injection, schedule: Q01DX009 (ip), vehicle: saline + alcohol) 125 and 144 % of control; (dose: 0.4 micrograms/kg/injection, schedule: Q01DX009 (ip), vehicle: saline + alcohol) 125 % of control; (dose: 0.8 micrograms/kg/injection, schedule: Q01DX009 (ip), vehicle: saline + alcohol) 133 % of control; (dose: 1.6 micrograms/kg/injection, schedule: Q01DX009 (ip), vehicle: saline + alcohol) 137 % of control [3 of 4 alive]. Besides, the survivor count is 4 of 4 (dose: 25.0 micrograms/kg/injection, schedule: Q01DX009 (ip), vehicle: saline + alcohol); 3 of 4 and 6 of 6 (dose: 50.0 micrograms/kg/injection, schedule: Q01DX009 (ip), vehicle: saline + alcohol).
On to `CCOC(=O)/C=C(\C)Sc1cc(O)c2ccccc2c1O`, for which the survivor count (dose: 12.5 mg/kg/injection, schedule: Q01DX009 (ip), vehicle: saline with Tween-80) is given as 5 of 6.
Consider `O=C(Cn1ccc(=O)[nH]c1=O)Nc1nccs1`, for which, for the setting “dose: 50.0 mg/kg/injection, schedule: Q04DX003 (ip), vehicle: saline”, the survivor count was 2 of 6 and 4 of 6.
In the case of `[Fe+5].[O-][Cl+3]([O-])([O-])O.[O-]c1ccccc1C=NCCN1CC1.[O-]c1ccccc1C=NCCN1CC1`, the T/C is 142 % of control (dose: 25.0 mg/kg/injection, schedule: Q04DX003 (ip), vehicle: saline with Tween-80) and 133 % of control under setting [1]. In addition, the survivor count under setting [3] is 1 of 6 and the survivor count under setting [6] is 0 of 6.
Take `O=C1C(N2CCCC2)=C(N2CC2)C(=O)C(N2CCCC2)=C1N1CC1`: where the note is “dose: 0.5 mg/kg/injection, schedule: Q01DX009 (ip), vehicle: saline”, the T/C is 131 % of control. Also, the survivor count runs as follows: (dose: 1.0 mg/kg/injection, schedule: Q01DX009 (ip), vehicle: saline) 5 of 6; (dose: 2.0 mg/kg/injection, schedule: Q01DX009 (ip), vehicle: saline) 0 of 6.
On to `CN(C)c1ccc(/C=C/C2CC[N-]C3C(O)CCCC23)cc1.CN(C)c1ccc(/C=C/C2CC[N-]C3C(O)CCCC23)cc1.CN(C)c1ccc(/C=C/C2CC[N-]C3C(O)CCCC23)cc1.[Fe+3]` (stereo not drawn), for which, under “dose: 400.0 mg/kg/injection, schedule: Q04DX002 (ip), vehicle: saline with Tween-80”, the T/C was 125 % of control.
As to `CCC[CH2][Sn]([CH2]CCC)([O]C(=O)CCC(C)=O)[O]C(=O)CCC(C)=O`, the survivor count under setting [5] is on record as 2 of 6; the survivor count (dose: 25.0 mg/kg/injection, schedule: Q01DX009 (ip), vehicle: Klucel (hydroxypropylcellulose) (HPC)) was 0 of 6; the survivor count (dose: 50.0 mg/kg/injection, schedule: Q01DX009 (ip), vehicle: Klucel (hydroxypropylcellulose) (HPC)) is reported as 0 of 6.
With `C1=CCONC1`, under setting [6], the survivor count is 0 of 6.
As to `O=NN(CCCl)C(=O)Nc1ccc2[nH]c3ccccc3c2c1`, the survivor count (dose: 130.0 mg/kg/injection, schedule: Q01DX009 (ip), vehicle: Klucel (hydroxypropylcellulose) (HPC)) is recorded as 6 of 6; the survivor count (dose: 260.0 mg/kg/injection, schedule: Q01DX009 (ip), vehicle: Klucel (hydroxypropylcellulose) (HPC)) is listed as 6 of 6; the survivor count (dose: 520.0 mg/kg/injection, schedule: Q01DX009 (ip), vehicle: Klucel (hydroxypropylcellulose) (HPC)) was 5 of 6.
For `Cc1cc(N(CCCl)CCCl)ccc1C=Nc1cccnc1`, under “dose: 100.0 mg/kg/injection, schedule: Q01DX009 (ip), vehicle: Klucel (hydroxypropylcellulose) (HPC)”, the T/C is 135 % of control.
